For the assay, the target named is GST-WASP-GBD (GTPase-binding-domain) (UniProt P42768). Kind of assay: pull-down; MDA-MB-231 lysates (20 mM Hepes pH 7.4, 150 mM NaCl, 1% NP-40, 20 mM NaF, 20 uM GTP) incubated with GST (control) or GST-WASP-GBD for 2 h at 4 °C, collected with glutathione-Sepharose, blot with anti-Cdc42; cells serum starved, then DMSO or 50 µM compound for 2 h, with or without 100 ng/mL EGF for 10 min; only the target purified.

Chains of the proteins cited; added tags and fusions are not shown. Lines headed by an entry give the natural chain unless they say otherwise; changes in a name come on top.
UniProt P42768: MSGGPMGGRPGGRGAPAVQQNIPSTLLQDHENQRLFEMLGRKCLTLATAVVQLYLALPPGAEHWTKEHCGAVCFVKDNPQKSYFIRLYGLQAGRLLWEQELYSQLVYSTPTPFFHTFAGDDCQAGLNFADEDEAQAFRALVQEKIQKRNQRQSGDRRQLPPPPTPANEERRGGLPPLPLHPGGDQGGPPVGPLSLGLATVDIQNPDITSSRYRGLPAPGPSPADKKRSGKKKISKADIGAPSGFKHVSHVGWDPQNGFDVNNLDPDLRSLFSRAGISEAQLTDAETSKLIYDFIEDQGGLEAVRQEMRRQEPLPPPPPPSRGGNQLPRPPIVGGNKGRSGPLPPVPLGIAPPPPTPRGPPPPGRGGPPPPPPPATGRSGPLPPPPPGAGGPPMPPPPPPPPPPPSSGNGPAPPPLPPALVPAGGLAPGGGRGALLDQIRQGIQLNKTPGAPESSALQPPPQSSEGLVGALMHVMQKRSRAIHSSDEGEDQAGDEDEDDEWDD
UniProt P60953: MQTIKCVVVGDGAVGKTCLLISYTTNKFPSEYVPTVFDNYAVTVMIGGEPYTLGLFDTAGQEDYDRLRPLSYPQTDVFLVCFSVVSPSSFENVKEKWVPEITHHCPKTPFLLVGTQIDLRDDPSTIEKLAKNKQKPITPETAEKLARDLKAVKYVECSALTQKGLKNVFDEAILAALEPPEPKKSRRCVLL

Results are given in words; binding and its absence hold for the method and conditions named. Binding seen in cells or lysates may run through a third protein. Binding can be weak; no strength is given.

For the substance “endogenous Cdc42 (MDA-MB-231) (from UniProt P60953 1-191)”, the binding entry is given as “binds”.
